The assay deals with T1, GST-Set7 (UniProt Q8WTS6).
T1 sequence: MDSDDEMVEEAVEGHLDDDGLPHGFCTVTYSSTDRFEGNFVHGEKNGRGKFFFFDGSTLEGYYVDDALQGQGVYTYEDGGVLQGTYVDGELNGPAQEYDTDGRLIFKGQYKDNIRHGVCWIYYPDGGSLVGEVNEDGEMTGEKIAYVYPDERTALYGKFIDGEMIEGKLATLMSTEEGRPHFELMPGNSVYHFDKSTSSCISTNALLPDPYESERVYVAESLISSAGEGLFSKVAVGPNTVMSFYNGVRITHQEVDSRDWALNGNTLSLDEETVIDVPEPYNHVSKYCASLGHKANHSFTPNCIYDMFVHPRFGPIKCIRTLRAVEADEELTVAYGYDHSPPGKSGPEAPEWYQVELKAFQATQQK
The assay is described as follows: pull-down; GST-Set7 as bait with MBP-tagged Gli3 truncated fragments (MBP-K436, MBP-K595); proteins expressed in E. coli; both purified.

No constants are given. Whether binding was seen depends on the method and setting. Some entries that bind do so weakly or less than the wild type. Tags and fused reporters may be left off the sequences shown.

B1: MBP-K436 (amino acids from 344 to 463 of Gli3) (domain or fragment, UniProt P10071 344-463)
chain: PALSFTYSSAPVSLHMHQQILSRQQSLGSAFGHSPPLIHPAPTFPTQRPIPGIPTVLNPVQVSSGPSESSQNKPTSESAVSSTGDPMHNKRSKIKPDEDLPSPGARGQQEQPEGTTLVKE
Regarding B1, the binding entry was “binds”.

The values are drawn from paper PMC4884081.
